These are yes or no findings as the source states them, for the method shown. For part of these data: In cells and extracts the contact can be indirect. Some entries that bind do so weakly or less than the wild type. For part of these data: Where a sequence is shown, tags or fusion partners need not be part of it.
T1: GFP-tagged polycystin-2 (GFP-PC2) (UniProt Q13563)
T1 sequence: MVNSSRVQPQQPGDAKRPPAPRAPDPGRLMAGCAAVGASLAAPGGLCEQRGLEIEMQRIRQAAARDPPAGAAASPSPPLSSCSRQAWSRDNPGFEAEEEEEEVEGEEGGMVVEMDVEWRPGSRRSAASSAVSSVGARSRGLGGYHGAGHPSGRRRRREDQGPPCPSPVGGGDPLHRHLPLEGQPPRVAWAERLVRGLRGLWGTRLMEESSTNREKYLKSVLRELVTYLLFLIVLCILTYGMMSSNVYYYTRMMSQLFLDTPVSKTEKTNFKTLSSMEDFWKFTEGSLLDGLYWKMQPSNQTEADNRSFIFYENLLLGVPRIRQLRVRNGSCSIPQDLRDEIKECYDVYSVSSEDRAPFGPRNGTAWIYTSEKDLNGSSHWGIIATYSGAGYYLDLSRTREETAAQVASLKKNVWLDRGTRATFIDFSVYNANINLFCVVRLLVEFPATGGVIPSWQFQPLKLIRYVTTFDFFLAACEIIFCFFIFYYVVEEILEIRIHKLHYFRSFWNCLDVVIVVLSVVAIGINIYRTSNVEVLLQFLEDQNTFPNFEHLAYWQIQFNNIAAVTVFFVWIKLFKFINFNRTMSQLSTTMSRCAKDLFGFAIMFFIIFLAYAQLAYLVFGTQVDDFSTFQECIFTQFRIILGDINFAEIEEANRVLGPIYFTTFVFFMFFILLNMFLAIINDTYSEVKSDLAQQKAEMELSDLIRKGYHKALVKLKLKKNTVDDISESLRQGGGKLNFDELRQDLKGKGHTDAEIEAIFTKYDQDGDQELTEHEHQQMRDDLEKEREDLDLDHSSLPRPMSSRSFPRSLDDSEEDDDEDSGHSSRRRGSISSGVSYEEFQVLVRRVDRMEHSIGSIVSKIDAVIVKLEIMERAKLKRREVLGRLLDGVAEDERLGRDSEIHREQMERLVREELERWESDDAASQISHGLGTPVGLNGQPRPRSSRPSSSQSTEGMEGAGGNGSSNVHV

Chains of the proteins cited; added tags and fusions are not shown. Lines headed by an entry give the natural chain unless they say otherwise; changes in a name come on top.
UniProt P21333: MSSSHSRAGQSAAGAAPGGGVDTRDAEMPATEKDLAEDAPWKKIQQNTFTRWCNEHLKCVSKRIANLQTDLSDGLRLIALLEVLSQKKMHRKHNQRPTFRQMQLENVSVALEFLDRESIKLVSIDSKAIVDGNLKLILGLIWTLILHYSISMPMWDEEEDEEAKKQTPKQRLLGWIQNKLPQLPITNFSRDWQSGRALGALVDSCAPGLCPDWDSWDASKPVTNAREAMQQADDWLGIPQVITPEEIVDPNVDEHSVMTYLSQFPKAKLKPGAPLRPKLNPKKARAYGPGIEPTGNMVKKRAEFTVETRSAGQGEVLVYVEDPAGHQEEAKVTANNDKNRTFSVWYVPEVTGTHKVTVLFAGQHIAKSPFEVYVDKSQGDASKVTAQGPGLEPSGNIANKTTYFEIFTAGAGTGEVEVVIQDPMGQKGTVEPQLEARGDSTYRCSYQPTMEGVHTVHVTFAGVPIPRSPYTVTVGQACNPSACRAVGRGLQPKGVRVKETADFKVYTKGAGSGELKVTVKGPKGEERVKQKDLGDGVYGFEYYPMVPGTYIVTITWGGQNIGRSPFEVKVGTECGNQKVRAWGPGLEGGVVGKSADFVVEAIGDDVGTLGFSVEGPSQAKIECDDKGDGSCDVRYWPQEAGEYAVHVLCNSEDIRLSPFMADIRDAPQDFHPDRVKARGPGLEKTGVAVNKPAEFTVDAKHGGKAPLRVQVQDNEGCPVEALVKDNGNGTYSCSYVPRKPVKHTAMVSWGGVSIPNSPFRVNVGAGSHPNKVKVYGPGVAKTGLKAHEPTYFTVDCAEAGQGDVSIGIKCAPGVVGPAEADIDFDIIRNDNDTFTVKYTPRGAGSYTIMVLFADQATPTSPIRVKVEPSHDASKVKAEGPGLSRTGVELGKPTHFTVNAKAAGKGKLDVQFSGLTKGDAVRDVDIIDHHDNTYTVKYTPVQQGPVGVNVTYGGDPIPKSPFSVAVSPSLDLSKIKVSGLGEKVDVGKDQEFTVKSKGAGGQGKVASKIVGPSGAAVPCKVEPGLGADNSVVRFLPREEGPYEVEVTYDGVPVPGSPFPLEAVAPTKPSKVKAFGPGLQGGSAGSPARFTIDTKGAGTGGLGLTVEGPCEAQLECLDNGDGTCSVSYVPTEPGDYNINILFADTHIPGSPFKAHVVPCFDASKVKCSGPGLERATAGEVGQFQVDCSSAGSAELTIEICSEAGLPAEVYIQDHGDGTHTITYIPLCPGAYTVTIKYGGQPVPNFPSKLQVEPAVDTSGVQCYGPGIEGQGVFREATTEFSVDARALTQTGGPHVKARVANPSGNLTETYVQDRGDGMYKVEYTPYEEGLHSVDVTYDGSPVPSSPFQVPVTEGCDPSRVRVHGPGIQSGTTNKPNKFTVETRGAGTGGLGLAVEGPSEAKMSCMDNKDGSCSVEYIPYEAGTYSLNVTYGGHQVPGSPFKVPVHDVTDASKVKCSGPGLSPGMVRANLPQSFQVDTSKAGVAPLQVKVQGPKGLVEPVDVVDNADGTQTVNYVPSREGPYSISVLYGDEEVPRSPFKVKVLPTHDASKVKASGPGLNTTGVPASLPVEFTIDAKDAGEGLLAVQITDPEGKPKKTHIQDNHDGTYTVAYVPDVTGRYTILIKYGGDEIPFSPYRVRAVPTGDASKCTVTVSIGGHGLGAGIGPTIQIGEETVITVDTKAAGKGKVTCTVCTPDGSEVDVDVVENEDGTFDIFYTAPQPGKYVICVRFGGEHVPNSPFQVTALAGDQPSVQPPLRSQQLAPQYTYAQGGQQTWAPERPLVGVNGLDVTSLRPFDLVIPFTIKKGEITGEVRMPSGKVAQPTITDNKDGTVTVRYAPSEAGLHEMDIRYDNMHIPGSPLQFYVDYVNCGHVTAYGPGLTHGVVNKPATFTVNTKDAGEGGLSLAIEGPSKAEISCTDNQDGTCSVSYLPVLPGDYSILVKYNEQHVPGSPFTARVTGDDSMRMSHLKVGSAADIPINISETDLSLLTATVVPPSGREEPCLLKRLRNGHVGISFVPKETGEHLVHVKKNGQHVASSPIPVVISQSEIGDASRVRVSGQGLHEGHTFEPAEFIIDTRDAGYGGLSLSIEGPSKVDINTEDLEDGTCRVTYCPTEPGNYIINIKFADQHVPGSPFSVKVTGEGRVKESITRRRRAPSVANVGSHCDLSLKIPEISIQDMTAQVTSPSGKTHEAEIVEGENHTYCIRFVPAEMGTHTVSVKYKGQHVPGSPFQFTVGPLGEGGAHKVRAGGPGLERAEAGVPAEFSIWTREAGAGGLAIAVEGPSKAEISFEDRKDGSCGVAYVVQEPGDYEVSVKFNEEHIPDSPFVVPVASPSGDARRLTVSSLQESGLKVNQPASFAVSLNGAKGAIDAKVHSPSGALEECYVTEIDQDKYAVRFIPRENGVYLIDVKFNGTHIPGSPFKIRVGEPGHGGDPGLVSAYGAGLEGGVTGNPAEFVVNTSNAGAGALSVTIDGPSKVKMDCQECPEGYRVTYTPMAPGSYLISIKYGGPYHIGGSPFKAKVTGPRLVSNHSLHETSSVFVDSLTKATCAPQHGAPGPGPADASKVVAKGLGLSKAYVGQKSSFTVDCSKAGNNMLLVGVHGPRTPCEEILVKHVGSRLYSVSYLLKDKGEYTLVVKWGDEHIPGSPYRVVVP
UniProt Q8BTM8: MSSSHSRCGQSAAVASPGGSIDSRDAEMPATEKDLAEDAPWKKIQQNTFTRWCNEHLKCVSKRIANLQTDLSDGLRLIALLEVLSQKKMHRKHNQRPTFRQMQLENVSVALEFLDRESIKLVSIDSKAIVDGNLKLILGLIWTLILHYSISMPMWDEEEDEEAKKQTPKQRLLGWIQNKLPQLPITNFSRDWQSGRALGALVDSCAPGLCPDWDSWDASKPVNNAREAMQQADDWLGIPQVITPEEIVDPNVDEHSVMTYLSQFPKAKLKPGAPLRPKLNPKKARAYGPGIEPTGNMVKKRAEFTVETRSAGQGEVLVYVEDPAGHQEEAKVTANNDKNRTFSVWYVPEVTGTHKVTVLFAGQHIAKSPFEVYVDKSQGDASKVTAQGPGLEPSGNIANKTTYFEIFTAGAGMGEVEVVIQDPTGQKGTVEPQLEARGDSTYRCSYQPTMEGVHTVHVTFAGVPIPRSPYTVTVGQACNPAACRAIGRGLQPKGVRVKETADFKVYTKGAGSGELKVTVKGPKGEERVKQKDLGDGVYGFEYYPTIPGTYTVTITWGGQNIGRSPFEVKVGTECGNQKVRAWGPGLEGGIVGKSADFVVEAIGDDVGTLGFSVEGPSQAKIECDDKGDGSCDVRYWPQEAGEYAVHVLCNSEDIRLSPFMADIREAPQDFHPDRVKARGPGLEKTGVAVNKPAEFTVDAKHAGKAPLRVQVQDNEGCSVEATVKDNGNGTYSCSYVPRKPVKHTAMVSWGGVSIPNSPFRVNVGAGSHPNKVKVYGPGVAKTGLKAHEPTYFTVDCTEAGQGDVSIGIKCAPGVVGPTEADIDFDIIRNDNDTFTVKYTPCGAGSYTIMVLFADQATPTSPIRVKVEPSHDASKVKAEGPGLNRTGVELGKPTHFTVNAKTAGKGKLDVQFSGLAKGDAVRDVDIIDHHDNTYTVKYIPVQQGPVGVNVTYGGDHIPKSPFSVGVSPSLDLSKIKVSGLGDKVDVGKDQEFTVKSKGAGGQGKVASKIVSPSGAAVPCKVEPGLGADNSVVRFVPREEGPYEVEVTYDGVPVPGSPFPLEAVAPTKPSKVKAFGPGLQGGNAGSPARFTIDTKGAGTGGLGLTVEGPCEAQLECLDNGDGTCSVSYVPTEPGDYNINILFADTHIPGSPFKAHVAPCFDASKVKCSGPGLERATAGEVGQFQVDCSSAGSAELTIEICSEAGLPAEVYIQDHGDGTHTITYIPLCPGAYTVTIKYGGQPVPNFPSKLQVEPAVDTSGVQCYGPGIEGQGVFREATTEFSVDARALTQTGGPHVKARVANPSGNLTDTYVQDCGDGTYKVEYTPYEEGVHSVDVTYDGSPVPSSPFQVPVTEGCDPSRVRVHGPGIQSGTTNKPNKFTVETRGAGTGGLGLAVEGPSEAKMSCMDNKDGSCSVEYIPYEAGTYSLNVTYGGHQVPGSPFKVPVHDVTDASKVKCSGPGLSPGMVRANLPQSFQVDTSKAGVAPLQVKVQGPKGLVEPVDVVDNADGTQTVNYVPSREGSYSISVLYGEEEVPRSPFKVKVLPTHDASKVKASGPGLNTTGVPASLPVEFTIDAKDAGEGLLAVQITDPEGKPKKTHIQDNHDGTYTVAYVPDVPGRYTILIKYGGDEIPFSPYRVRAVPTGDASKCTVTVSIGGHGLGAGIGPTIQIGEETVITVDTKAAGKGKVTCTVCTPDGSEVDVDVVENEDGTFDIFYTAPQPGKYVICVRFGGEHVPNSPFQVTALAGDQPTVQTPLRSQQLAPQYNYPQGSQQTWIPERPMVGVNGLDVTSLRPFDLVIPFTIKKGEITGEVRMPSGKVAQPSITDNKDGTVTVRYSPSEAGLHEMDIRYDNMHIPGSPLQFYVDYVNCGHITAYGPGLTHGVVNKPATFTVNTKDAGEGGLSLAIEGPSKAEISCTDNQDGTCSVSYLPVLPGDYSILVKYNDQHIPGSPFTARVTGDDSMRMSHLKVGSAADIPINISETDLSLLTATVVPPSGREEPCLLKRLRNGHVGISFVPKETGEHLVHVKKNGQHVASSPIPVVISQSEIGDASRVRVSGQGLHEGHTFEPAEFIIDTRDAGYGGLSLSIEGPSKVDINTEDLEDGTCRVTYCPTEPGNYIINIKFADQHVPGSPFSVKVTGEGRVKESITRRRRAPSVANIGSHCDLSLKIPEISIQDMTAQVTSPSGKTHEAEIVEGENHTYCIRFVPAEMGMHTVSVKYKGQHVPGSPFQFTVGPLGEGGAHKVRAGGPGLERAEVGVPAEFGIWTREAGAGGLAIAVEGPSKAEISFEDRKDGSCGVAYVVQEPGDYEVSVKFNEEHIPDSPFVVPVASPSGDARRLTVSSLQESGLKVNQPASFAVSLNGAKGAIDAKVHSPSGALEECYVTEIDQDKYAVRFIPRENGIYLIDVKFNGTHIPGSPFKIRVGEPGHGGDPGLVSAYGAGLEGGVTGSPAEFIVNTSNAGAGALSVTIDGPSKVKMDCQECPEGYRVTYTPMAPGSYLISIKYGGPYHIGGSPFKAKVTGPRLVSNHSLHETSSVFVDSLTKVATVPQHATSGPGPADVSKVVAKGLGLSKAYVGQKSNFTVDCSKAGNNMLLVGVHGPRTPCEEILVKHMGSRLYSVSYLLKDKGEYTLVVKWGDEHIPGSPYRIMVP

T2: Polycystin-2 (PC2), endogenous in HeLa cells (human (endogenous in HeLa)) (UniProt Q13563)
T2 sequence: T1 sequence

B1: GFP-tagged polycystin-2 (GFP-PC2) (protein, UniProt Q13563 1-968)
chain: T1 sequence
B2: GST-PC2C (C-terminus of PC2, aa 682-968) (domain or fragment, UniProt Q13563 682-968)
chain: DTYSEVKSDLAQQKAEMELSDLIRKGYHKALVKLKLKKNTVDDISESLRQGGGKLNFDELRQDLKGKGHTDAEIEAIFTKYDQDGDQELTEHEHQQMRDDLEKEREDLDLDHSSLPRPMSSRSFPRSLDDSEEDDDEDSGHSSRRRGSISSGVSYEEFQVLVRRVDRMEHSIGSIVSKIDAVIVKLEIMERAKLKRREVLGRLLDGVAEDERLGRDSEIHREQMERLVREELERWESDDAASQISHGLGTPVGLNGQPRPRSSRPSSSQSTEGMEGAGGNGSSNVHV

Tests used:
[1] = molecular target: Filamin-A (FLNA) of FLNA-replete A7 cells (human (in A7 human melanoma cells)) (UniProt P21333); assay: co-IP; A7 cells stably expressing GFP-PC2, with or without over-expressed FLNAC (Fig 4B); precipitating antibody of this panel not stated
[2] = molecular target: T1, GFP-tagged polycystin-2 (GFP-PC2); assay: co-IP; anti-GFP antibody and protein G sepharose on lysates of M2 and A7 cells stably expressing GFP-PC2; cells with transient FLNAC, or with control or FLNA knock-down; CelLytic-M lysis buffer, 4°C
[3] = molecular target: T1, GFP-tagged polycystin-2 (GFP-PC2); assay: cell surface biotinylation with avidin agarose pull-down; A7 cells (native or stably expressing GFP-PC2, with or without FLNAC over-expression); Sulfo-NHS-SS-Biotin at 4°C; biotinylated proteins captured on avidin agarose and immunoblotted
[4] = molecular target: T1, GFP-tagged polycystin-2 (GFP-PC2); assay: co-IP; A7 cells stably expressing GFP-PC2, with or without over-expressed FLNAC (Fig 4B); precipitating antibody of this panel not stated
[5] = molecular target: T2, Polycystin-2 (PC2), endogenous in HeLa cells (human (endogenous in HeLa)); assay: co-IP; PC2 (H-280) antibody on HeLa lysate, endogenous proteins, with or without FLNA knock-down
[6] = molecular target: Filamin-A (FLNA) of FLNA-replete A7 cells (human (in A7 human melanoma cells)) (UniProt P21333); assay: far-Western, overlay or dot blot; as a3, but the membrane was co-incubated with purified GST-PC2C and purified His-FLNAC (competition); only the binder purified
[7] = molecular target: Filamin-A (FLNA), endogenous in HeLa and HEK293 cells (human (endogenous in HeLa and HEK293)) (UniProt P21333); assay: co-IP; HeLa (transient GFP-PC2), IMCD and HEK293 (stable GFP-PC2) lysates with nothing added, 1 mM Ca or 1 mM EGTA; in HeLa, IP with FLNA (E-3) and IB with GFP (EU4); IMCD and HEK293 with and without FLNA knock-down
[8] = molecular target: Filamin-A (FLNA), endogenous in mouse IMCD cells (mouse (endogenous in IMCD)) (UniProt Q8BTM8); assay: as above
[9] = molecular target: Filamin-A (FLNA) of FLNA-replete A7 cells (human (in A7 human melanoma cells)) (UniProt P21333); assay: far-Western, overlay or dot blot; 50 μg lysate of A7 and M2 cells stably expressing PC2, separated by SDS-PAGE, transferred to nitrocellulose, denatured and renatured, then incubated with purified GST-PC2C alone; bound protein detected with PC2 (H-280) antibody; only the binder purified

| Molecule | binding [2] | binding [3] | binding [6] | also measured |
| --- | --- | --- | --- | --- |
| FLNA C-terminus (FLNAC, aa 2150-2647), expressed in cells (from UniProt P21333 2150-2647) (domain or fragment) | binds | binds | – | binding [1]: binds |
| Filamin-A (FLNA) of FLNA-replete A7 cells (from UniProt P21333 1-2647) | binds | binds | – | binding [4]: binds |
| Filamin-A (FLNA), endogenous in HeLa and HEK293 cells (from UniProt P21333 1-2647) | – | – | – | binding [5]: binds |
| His-FLNAC (FLNA C-terminus, aa 2150-2647), purified from E. coli (from UniProt P21333 2150-2647) (domain or fragment) | – | – | binds | – |
| B1 | – | – | – | binding [7]: binds; binding [8]: binds |
| B2 | – | – | binds | binding [9]: binds |
